Results as given in article PMC9534812, “Hetero-pentamerization determines mobility and conductance of Glycine receptor α3 splice variants” (Cellular and Molecular Life Sciences, 2022).
No constants are given. Whether binding was seen depends on the method and setting. Some binding calls cover weakened binding; strength is not graded here. Sequences can lack the tags named with a protein.

By UniProt entry, the sequences of proteins in these tests, tags left out.
UniProt P07948: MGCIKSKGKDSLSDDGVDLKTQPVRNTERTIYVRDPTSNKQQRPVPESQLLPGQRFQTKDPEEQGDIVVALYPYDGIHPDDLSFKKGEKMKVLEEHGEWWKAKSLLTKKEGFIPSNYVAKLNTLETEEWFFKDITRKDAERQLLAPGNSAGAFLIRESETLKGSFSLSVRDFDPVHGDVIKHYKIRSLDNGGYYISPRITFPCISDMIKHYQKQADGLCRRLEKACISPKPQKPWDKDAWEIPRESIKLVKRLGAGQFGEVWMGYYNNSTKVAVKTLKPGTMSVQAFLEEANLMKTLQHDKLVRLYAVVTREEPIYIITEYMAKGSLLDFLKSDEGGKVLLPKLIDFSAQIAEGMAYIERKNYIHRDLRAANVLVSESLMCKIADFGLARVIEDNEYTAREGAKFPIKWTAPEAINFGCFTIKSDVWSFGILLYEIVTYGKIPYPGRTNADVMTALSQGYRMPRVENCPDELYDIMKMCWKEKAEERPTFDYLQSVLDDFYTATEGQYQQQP

Legend:
[1] = target: Lyn-mCherry (tyrosine-protein kinase Lyn coupled to mCherry) (UniProt P07948); test: dual-color temporal image cross-correlation spectroscopy (TICCS); live HEK293 cells, alternating two-colour TIRF excitation, room temperature; clusters removed by static mask; relative cross-correlation of eGFP and mCherry channels
[2] = target: T1, GlyR-α3L-mCherry (glycine receptor α3 subunit, long splice variant L, N-terminally tagged with mCherry) (mouse) (UniProt Q91XP5); test: as above
T1 sequence: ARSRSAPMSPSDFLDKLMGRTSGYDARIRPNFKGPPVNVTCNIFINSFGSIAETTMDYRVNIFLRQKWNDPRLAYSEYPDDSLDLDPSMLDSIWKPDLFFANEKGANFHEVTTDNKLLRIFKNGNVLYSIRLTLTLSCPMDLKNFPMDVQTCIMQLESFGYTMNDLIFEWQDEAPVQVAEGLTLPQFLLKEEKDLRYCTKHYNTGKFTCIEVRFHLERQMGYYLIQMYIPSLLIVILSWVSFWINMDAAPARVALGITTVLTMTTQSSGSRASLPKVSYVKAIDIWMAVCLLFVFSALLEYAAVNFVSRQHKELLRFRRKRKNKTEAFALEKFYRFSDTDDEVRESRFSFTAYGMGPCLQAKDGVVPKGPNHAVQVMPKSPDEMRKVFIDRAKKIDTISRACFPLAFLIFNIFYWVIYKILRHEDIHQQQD

[3] = target: GlyR-α3L-eGFP (glycine receptor α3 subunit, long splice variant L, N-terminally tagged with eGFP) (mouse) (UniProt Q91XP5); test: subunit counting by stepwise photobleaching (TIRF microscopy); fixed HEK293 cells with low copy number expression (50 ng GlyR-α3L-eGFP, 0-500 ng GlyR-α3K-mCherry); eGFP bleaching steps per diffraction-limited spot, step histogram fitted with binomial models; room temperature

B1: GlyR-α3L-eGFP (glycine receptor α3 subunit, long splice variant L, N-terminally tagged with eGFP) (receptor, mouse, UniProt Q91XP5 34-464, looked up)
chain: ARSRSAPMSPSDFLDKLMGRTSGYDARIRPNFKGPPVNVTCNIFINSFGSIAETTMDYRVNIFLRQKWNDPRLAYSEYPDDSLDLDPSMLDSIWKPDLFFANEKGANFHEVTTDNKLLRIFKNGNVLYSIRLTLTLSCPMDLKNFPMDVQTCIMQLESFGYTMNDLIFEWQDEAPVQVAEGLTLPQFLLKEEKDLRYCTKHYNTGKFTCIEVRFHLERQMGYYLIQMYIPSLLIVILSWVSFWINMDAAPARVALGITTVLTMTTQSSGSRASLPKVSYVKAIDIWMAVCLLFVFSALLEYAAVNFVSRQHKELLRFRRKRKNKTEAFALEKFYRFSDTDDEVRESRFSFTAYGMGPCLQAKDGVVPKGPNHAVQVMPKSPDEMRKVFIDRAKKIDTISRACFPLAFLIFNIFYWVIYKILRHEDIHQQQD
notes: Glycine receptor subunit alpha-3, mouse, splice variant L (464 residues); The receptor assembles as a pentamer; the molecule here is the subunit; also called L variant; GlyR-α3L-FP; source: HEK293, transiently transfected (calcium phosphate; truncated CMV promoter), in the membrane of live or fixed cells; not shown: eGFP, N-terminal, kept
binding [1]: no binding
binding [2]: binds
binding [3]: binds
